Experimental data from the supplement of paper PMC10849652.
The list shows a part of the results. Residues, ends and D or L forms follow the SMILES beside them. *: point of attachment. Cbz = O=C(OCc1ccccc1)*

Protein sequences, listed by entry. Tags and fused reporters are not part of them. Lines headed by an entry give the natural chain unless they say otherwise; changes in a name come on top.
UniProt Q9BSB4: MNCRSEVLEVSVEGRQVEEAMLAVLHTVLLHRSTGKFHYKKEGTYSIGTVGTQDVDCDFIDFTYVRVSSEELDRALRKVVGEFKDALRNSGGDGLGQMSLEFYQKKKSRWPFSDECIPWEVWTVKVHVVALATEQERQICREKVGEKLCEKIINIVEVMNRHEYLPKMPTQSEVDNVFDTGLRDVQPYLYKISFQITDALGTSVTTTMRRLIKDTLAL
UniProt Q93084: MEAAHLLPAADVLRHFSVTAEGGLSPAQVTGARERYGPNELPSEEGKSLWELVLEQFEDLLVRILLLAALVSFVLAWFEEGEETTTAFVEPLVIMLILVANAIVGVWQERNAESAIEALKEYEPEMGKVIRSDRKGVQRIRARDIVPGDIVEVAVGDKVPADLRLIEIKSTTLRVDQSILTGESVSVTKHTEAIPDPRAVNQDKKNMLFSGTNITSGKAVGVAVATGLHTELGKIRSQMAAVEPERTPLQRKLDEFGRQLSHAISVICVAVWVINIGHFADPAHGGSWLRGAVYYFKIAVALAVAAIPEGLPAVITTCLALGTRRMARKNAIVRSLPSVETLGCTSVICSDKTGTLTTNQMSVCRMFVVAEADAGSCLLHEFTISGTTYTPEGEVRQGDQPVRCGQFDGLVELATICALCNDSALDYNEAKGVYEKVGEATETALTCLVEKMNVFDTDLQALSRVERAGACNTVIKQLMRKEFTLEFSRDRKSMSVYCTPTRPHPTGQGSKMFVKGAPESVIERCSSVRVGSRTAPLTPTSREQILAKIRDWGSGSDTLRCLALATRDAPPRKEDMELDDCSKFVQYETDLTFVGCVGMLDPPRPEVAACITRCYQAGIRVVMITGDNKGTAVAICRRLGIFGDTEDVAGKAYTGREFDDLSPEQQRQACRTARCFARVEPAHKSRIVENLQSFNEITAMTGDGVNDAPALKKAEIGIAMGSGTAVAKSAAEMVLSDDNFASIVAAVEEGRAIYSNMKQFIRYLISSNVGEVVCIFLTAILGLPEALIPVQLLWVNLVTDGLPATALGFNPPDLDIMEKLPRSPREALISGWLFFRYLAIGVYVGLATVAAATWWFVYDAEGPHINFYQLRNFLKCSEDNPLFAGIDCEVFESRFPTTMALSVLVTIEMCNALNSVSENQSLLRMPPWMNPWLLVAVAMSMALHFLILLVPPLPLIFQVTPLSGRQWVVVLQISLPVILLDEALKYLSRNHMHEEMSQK
UniProt Q15904, whole entry, looked up: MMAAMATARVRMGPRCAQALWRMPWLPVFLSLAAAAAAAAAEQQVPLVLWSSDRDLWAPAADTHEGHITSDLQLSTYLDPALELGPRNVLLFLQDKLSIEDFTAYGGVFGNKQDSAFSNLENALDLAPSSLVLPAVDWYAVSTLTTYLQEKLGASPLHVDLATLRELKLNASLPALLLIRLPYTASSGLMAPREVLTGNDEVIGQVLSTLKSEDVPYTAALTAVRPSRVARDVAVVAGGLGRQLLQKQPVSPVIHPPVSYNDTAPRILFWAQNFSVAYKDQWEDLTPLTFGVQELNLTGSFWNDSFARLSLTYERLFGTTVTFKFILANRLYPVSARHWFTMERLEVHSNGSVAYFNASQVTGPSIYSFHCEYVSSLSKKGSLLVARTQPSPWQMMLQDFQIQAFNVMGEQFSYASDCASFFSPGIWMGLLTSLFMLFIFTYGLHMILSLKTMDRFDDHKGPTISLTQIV
UniProt P36404: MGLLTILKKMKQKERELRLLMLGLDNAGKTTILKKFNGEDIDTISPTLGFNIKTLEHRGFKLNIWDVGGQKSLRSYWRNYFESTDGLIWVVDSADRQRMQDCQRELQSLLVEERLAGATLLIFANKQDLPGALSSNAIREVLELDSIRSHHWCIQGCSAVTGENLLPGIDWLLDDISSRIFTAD
UniProt P54709, whole entry, looked up: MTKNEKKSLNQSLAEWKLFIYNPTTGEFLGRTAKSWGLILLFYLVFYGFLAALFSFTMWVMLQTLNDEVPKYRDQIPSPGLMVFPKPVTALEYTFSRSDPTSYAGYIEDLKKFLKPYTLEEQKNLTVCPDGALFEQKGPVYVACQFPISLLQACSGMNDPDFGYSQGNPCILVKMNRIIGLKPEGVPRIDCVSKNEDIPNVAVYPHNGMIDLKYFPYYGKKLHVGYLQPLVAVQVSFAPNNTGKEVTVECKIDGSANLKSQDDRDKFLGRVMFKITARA
UniProt Q93050, whole entry, looked up: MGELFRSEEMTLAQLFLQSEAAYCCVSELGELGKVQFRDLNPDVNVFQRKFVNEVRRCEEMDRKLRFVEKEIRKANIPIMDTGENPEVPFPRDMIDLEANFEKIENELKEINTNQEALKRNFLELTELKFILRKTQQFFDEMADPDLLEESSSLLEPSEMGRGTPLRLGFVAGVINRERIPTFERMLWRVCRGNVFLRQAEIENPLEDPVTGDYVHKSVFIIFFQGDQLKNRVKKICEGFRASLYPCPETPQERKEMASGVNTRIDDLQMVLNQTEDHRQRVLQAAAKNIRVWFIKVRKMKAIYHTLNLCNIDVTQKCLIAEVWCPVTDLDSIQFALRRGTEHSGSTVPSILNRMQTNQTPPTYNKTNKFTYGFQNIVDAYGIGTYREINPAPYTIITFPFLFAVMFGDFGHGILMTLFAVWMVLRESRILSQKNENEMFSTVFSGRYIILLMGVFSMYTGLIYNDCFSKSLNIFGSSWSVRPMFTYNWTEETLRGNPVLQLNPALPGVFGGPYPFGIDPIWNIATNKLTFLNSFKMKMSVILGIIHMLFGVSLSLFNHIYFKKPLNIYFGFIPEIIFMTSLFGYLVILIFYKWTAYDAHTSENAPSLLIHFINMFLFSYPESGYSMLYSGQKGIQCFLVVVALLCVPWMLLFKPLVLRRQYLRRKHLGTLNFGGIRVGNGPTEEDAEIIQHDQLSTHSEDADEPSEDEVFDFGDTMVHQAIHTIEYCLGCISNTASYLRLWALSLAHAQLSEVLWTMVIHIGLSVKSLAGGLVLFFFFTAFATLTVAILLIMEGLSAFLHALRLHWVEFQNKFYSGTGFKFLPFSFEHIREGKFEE
UniProt Q8NHH9: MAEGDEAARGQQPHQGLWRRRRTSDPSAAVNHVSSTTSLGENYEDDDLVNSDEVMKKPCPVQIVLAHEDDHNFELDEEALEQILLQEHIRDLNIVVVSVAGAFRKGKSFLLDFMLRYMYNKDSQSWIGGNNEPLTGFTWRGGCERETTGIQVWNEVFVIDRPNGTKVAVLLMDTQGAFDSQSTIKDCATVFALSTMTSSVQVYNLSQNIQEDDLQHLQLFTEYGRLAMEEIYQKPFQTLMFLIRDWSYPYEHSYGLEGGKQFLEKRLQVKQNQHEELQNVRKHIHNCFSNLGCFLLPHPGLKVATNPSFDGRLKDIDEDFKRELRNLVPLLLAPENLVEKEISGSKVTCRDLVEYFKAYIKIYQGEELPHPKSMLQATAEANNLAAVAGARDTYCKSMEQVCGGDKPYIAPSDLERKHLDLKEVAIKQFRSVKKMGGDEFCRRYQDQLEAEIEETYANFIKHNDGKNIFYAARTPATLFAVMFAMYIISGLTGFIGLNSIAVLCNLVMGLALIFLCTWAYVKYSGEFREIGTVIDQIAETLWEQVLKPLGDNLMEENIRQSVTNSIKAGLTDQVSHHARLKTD
UniProt Q9Y2Y0: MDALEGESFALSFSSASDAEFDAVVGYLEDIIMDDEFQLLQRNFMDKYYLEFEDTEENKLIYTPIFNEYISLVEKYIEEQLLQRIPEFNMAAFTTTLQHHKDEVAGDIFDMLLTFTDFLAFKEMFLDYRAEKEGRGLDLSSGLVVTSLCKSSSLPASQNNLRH

What was measured:
Assay in all cases: log2 fold change, soluble protein after heating vs DMSO (PISA); higher = thermal stabilisation; K562 cells, 10 uM, 30 min; active = over 0.2 and 3.5 SD of the protein, either way, in both replicates (recomputed)
[1] = compound: C#Cc1cccc(Nc2ncnc3cc(OCCOC)c(OCCOC)cc23)c1 [erlotinib]
Procedure, shortened: (§1)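 Aliquots of K562 cells (2×10^6 cells/mL) treated with 10 μM compound for 30 min were heated for 3 min over 48°C-58°C. After pooling and extraction in PBS with 0.5% NP-40 at 4°C, soluble protein from a 21,000xg, 90 min spin was quantified by TMTpro 16plex LC-MS/MS with channel sums equalised. Thermal stability is expressed against control samples, from duplicates, as a log2 fold change.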

[2] = compound: C/C(=N\NC(=O)C1=CC(=CC=C1)S(=O)(=O)N2CCOCC2)/C3=C(C=CC(=C3)Cl)O
Procedure, shortened: as §1

[3] = compound: C1=CC(=C(C=C1Cl)C2=NC3=NC=CN=C3C(=N2)NC4=CC=NC=C4)F
Procedure, shortened: as §1

[4] = compound: C1=CC(=CC=C1C2=NC3=C(N2)C=C(C=C3)C(=O)N)OC4=CC=C(C=C4)Cl
Procedure, shortened: as §1

[5] = compound: C1=CC2=C(C=CC(=C2)/C=C\3/C(=O)NC(=NCC4=CC=CS4)S3)N=C1
Procedure, shortened: as §1

[6] = compound: C1=CC2=NC=CN=C2C=C1/C=C/3\C(=O)NC(=O)S3
Procedure, shortened: as §1

[7] = compound: C1=CC=C(C=C1)C2=NC(=C(N2)C3=CC=NC=C3)C4=CC(=C(C=C4)Cl)O
Procedure, shortened: as §1

[8] = compound: C1=CC=C2C(=C1)C3=NNC4=CC=CC(=C43)C2=O
Procedure, shortened: as §1

[9] = compound: C1CCN(C1)C(=O)NC2=CC=CC(=C2)NC3=NC=C(C(=N3)NCCC4=CN=CN4)Br
Procedure, shortened: as §1

[10] = compound: C1CN(CCC1(CC2=CC=C(C=C2)Cl)N)C3=NC=NC4=C3C=CN4
Procedure, shortened: as §1

[11] = compound: C1COCCN1CCN2C3=CC=CC=C3N=C2NC(=O)C4=CC(=CC=C4)[N+](=O)[O-] [IRAK-1-4 Inhibitor I]
Procedure, shortened: as §1

[12] = compound: C=CC(=O)N1CCC[C@@H](n2nc(-c3ccc(Oc4ccccc4)cc3)c3c(N)ncnc32)C1 [ibrutinib]
Procedure, shortened: as §1

[13] = compound: CC(=O)c1cnc2ccc(-c3cc(Cl)c(O)c(Cl)c3)nc2c1N[C@H]1CC[C@H](CN(C)C)CC1
Procedure, shortened: as §1

[14] = compound: CC(C)(C)Cn1c(N)nc2ccc(-c3[nH]c(C(C)(C)C)nc3-c3ccc(F)cc3)nc21 [ralimetinib]
Procedure, shortened: as §1

[15] = compound: CC(C)(O)CC(=O)NCCn1ccc2ncnc(Nc3ccc(Oc4cccc(C(F)(F)F)c4)c(Cl)c3)c21
Procedure, shortened: as §1

[16] = compound: CC(C)C1=C2N=C(C=C(N2N=C1)NCC3=CC=CC=C3)NCCCCCCN
Procedure, shortened: as §1

[17] = compound: CC(C)C[C@@H](C=O)NC(=O)[C@H](CC(C)C)NC(=O)[C@H](CC(C)C)NC(=O)OCc1ccccc1
Procedure, shortened: as §1

[18] = compound: CC(C)N(C[C@H]1O[C@@H](n2cnc3c(N)ncnc32)[C@H](O)[C@@H]1O)[C@H]1C[C@@H](CCc2nc3cc(C(C)(C)C)ccc3[nH]2)C1 [pinometostat]
Procedure, shortened: as §1

[19] = compound: CC1=C(C(CC(=O)N1)C2=CC=C(C=C2)C(F)(F)F)C(=O)NC3=C(C=C4C(=C3)C=NN4)F
Procedure, shortened: as §1

[20] = compound: CC1=C(C2=C(C=C1)C(=O)C3=CC=CC=C3N2CCCN)C
Procedure, shortened: as §1

ATG101 (UniProt Q9BSB4)
log2 fold change [1]: inactive: -0.041 | log2 fold change [2]: inactive: 0.04 | log2 fold change [3]: inactive: 0.036 | log2 fold change [4]: inactive: 0.016 | log2 fold change [5]: inactive: -0.011 | log2 fold change [6]: inactive: -0.055 | log2 fold change [7]: inactive: -0.012 | log2 fold change [8]: inactive: -0.048 | log2 fold change [9]: inactive: 0.084 | log2 fold change [10]: inactive: -0.257 | log2 fold change [11]: inactive: 0.024 | log2 fold change [12]: inactive: -0.067 | log2 fold change [13]: inactive: -0.025 | log2 fold change [14]: inactive: -0.045 | log2 fold change [15]: inactive: -0.015 | log2 fold change [16]: inactive: 0.025 | log2 fold change [17]: inactive: 0.015 | log2 fold change [18]: inactive: -0.023 | log2 fold change [19]: inactive: 0.016 | log2 fold change [20]: inactive: -0.188

ATP2A3 isoform 2 (UniProt Q93084)
log2 fold change [1]: inactive: -0.002 | log2 fold change [2]: inactive: -0.002 | log2 fold change [3]: inactive: 0.053 | log2 fold change [4]: inactive: -0.002 | log2 fold change [5]: inactive: -0.014 | log2 fold change [6]: inactive: 0.014 | log2 fold change [7]: inactive: -0.003 | log2 fold change [8]: inactive: -0.04 | log2 fold change [9]: inactive: -0.025 | log2 fold change [10]: inactive: 0.059 | log2 fold change [11]: inactive: 0.038 | log2 fold change [12]: inactive: -0.013 | log2 fold change [13]: inactive: 0.001 | log2 fold change [14]: inactive: -0.023 | log2 fold change [15]: inactive: 0.018 | log2 fold change [16]: active: -0.295 | log2 fold change [17]: inactive: -0.044 | log2 fold change [18]: inactive: 0.005 | log2 fold change [20]: inactive: -0.009

ATP6AP1 (UniProt Q15904)
log2 fold change [1]: inactive: -0.009 | log2 fold change [2]: inactive: -0.031 | log2 fold change [3]: inactive: -0.036 | log2 fold change [4]: inactive: 0.029 | log2 fold change [5]: inactive: -0.08 | log2 fold change [6]: inactive: -0.022 | log2 fold change [7]: inactive: -0.128 | log2 fold change [8]: inactive: -0.004 | log2 fold change [9]: inactive: 0.01 | log2 fold change [10]: inactive: -0.079 | log2 fold change [11]: inactive: -0.02 | log2 fold change [12]: inactive: 0 | log2 fold change [13]: inactive: -0.035 | log2 fold change [14]: inactive: 0.01 | log2 fold change [15]: inactive: 0.035 | log2 fold change [16]: inactive: -0.091 | log2 fold change [17]: inactive: 0.02 | log2 fold change [18]: inactive: 0.101 | log2 fold change [20]: inactive: -0.024

ARL2 (UniProt P36404)
log2 fold change [1]: inactive: 0.01 | log2 fold change [2]: inactive: 0.008 | log2 fold change [3]: inactive: 0.039 | log2 fold change [4]: inactive: -0.01 | log2 fold change [5]: inactive: 0.072 | log2 fold change [6]: inactive: 0.008 | log2 fold change [7]: inactive: 0.03 | log2 fold change [8]: inactive: 0.037 | log2 fold change [9]: inactive: -0.027 | log2 fold change [10]: inactive: -0.012 | log2 fold change [11]: inactive: 0.007 | log2 fold change [12]: inactive: 0.002 | log2 fold change [13]: inactive: -0.025 | log2 fold change [14]: inactive: -0.033 | log2 fold change [15]: inactive: -0.054 | log2 fold change [16]: inactive: 0.048 | log2 fold change [17]: inactive: -0.056 | log2 fold change [18]: inactive: -0.013 | log2 fold change [19]: inactive: -0.022 | log2 fold change [20]: inactive: 0.04

ATP1B3 (UniProt P54709)
log2 fold change [1]: inactive: -0.016 | log2 fold change [2]: inactive: -0.004 | log2 fold change [3]: inactive: -0.002 | log2 fold change [4]: inactive: -0.019 | log2 fold change [5]: inactive: -0.021 | log2 fold change [6]: inactive: 0.023 | log2 fold change [7]: inactive: 0.057 | log2 fold change [8]: inactive: -0.052 | log2 fold change [9]: inactive: -0.024 | log2 fold change [10]: inactive: 0.048 | log2 fold change [11]: inactive: 0.025 | log2 fold change [12]: inactive: 0.043 | log2 fold change [13]: inactive: -0.03 | log2 fold change [14]: inactive: -0.036 | log2 fold change [15]: inactive: 0.01 | log2 fold change [16]: inactive: 0.154 | log2 fold change [17]: inactive: -0.008 | log2 fold change [18]: inactive: -0.056 | log2 fold change [20]: inactive: -0.032

ATP6V0A1 isoform 3 (UniProt Q93050)
log2 fold change [1]: inactive: -0.086 | log2 fold change [2]: inactive: -0.041 | log2 fold change [3]: inactive: -0.176 | log2 fold change [4]: inactive: 0.061 | log2 fold change [5]: inactive: 0 | log2 fold change [6]: inactive: -0.008 | log2 fold change [7]: inactive: -0.232 | log2 fold change [8]: inactive: 0.052 | log2 fold change [9]: inactive: -0.066 | log2 fold change [10]: inactive: -0.195 | log2 fold change [11]: inactive: -0.068 | log2 fold change [12]: inactive: 0 | log2 fold change [13]: inactive: -0.033 | log2 fold change [14]: inactive: 0.087 | log2 fold change [15]: inactive: 0.019 | log2 fold change [16]: active: -0.463 | log2 fold change [17]: inactive: 0.125 | log2 fold change [18]: inactive: 0.198 | log2 fold change [20]: inactive: 0.011

ATL2 (UniProt Q8NHH9)
log2 fold change [1]: inactive: -0.004 | log2 fold change [2]: inactive: 0 | log2 fold change [3]: inactive: 0.081 | log2 fold change [4]: inactive: 0.004 | log2 fold change [5]: inactive: 0.049 | log2 fold change [6]: inactive: 0.012 | log2 fold change [7]: inactive: 0.049 | log2 fold change [8]: inactive: 0.014 | log2 fold change [9]: inactive: 0.077 | log2 fold change [10]: inactive: 0 | log2 fold change [11]: inactive: 0.011 | log2 fold change [12]: inactive: 0.006 | log2 fold change [13]: inactive: -0.058 | log2 fold change [14]: inactive: -0.116 | log2 fold change [15]: inactive: -0.087 | log2 fold change [16]: inactive: 0.054 | log2 fold change [17]: inactive: -0.001 | log2 fold change [18]: inactive: 0.035 | log2 fold change [20]: inactive: 0.169

ARL2BP (UniProt Q9Y2Y0)
log2 fold change [1]: inactive: -0.048 | log2 fold change [2]: inactive: 0.014 | log2 fold change [3]: inactive: 0.041 | log2 fold change [4]: inactive: -0.02 | log2 fold change [5]: inactive: 0.093 | log2 fold change [6]: inactive: 0.104 | log2 fold change [7]: inactive: 0.037 | log2 fold change [8]: inactive: -0.047 | log2 fold change [9]: inactive: -0.008 | log2 fold change [10]: inactive: -0.072 | log2 fold change [11]: inactive: -0.053 | log2 fold change [12]: inactive: -0.009 | log2 fold change [13]: inactive: 0.03 | log2 fold change [14]: inactive: 0.01 | log2 fold change [15]: inactive: -0.127 | log2 fold change [16]: inactive: -0.269 | log2 fold change [17]: inactive: -0.011 | log2 fold change [18]: inactive: -0.037 | log2 fold change [20]: inactive: -0.028
